Hit rate of the full screen: of about 53,000 sequences, about 3,700 (7%) were called active.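 The calls were made as follows: active = gene knockdowns whose robust z-score for IL-1 alpha signal is at least 2 or at most -2, so actives lie on both sides; inactive = the rest.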 The list shows a part of the results.

A short description of the experiment: Components of the Cytosolic LPS Sensing Pathway: Gene Identification via Genome-wide siRNA Screen.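 Also: robust z of the log signal after scaling to non-targeting control siRNA wells of the plate.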 The conditions noted are these: RAW264.7 macrophages, IL-1a HTRF, actives lie on both sides, screened at 100 nM (by protocol), cells primed 5 h with Pam3CSK4 first. In outline:
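Supernatant IL-1a by HTRF from RAW264.7 cells primed with Pam3CSK4 (5 hours) and transfected with LipidA (24 hour) after 48h siRNA knockdown at 100 nM; cell viability checked with CellTiter-Glo.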
For orientation: Time-resolved FRET reads energy transfer from a long-lived donor to a nearby acceptor.
Regarding GCGACUGAACAUCAACGCATT against Ada, the z-score was inactive: -0.862.

In the case of GGACGACAUGAUUUUCGAGTT against Atp1b1, the z-score was inactive: -0.399.

In the case of UGCUUUGCAUCUGGCUGUATT against Hs3st3b1, the z-score is inactive: -1.46.

As to CGUCAUAAAGAAUAGUUCCTT against Ncoa4, the z-score was inactive: 0.965.

As to GGAAUCGUCUGAGAAAUUCTT against Lgmn, the z-score is inactive: 1.44.

Regarding CCCGGAGGCUUCAAAACAATT against Hsd17b2, the z-score was inactive: -0.161.

Consider CGUAGUGCGCUUCAUUCAATT against Ufsp2, for which the z-score is inactive: 1.99.

Turning to GGCGCAUGCUGGAUAAACATT against Dhx58, the z-score was inactive: -1.14.

On to GGAGCAAGUCAAGUCUCAUTT against Fcho2, for which the z-score is inactive: 0.551.

With GAAGAUGACAACCAAACGCTT against Ucn3, the z-score is inactive: 0.122.

As for GGAAACAAUAAAUGUUCCCTT against Ldlrap1, the z-score is inactive: -1.35.

On to CCAAACAAUAGACAUGCUUTT against Npy1r, for which the z-score is inactive: 0.178.

Take GUCAACUUGCUGCCAAGACTT against Ifna2: the z-score was inactive: 0.286.

Turning to GGAAGAUGAUGUUUUAGGUTT against Pde7a, the z-score was inactive: 0.271.

As for GCAGUGAUUCAGUUAUAACTT against Gypc, the z-score is inactive: -0.0354.

Take GGGAAAAGGUCAGUGAAGUTT against Fam219b: the z-score is inactive: -0.305.

Take CGGUGUAAGUCUGGCUUUGTT against Tmem60: the z-score was inactive: 1.2.

As to GGAUGAAGACCUUGAACGGTT against Slc28a3, the z-score is inactive: 1.48.

Turning to GGCAGAGAUUGAGAGCAAGTT against Palm, the z-score is active: 2.28.

Regarding GCUUCAGCCAUUUCACCUUTT against Rnaseh2c, the z-score is inactive: 0.108.

In the case of GGUAACUAUGAAGAGAUCATT against Neu2, the z-score is inactive: 0.312.

For CCAAACAGUUCACAAUUCCTT against Rrp8, the z-score is inactive: -0.182.

Regarding GGCCAUGUUCGAGCAAACUTT against Wdr70, the z-score was inactive: -0.829.

Take GGGCAGGUGGAUGUGGAAATT against Ryr2: the z-score was inactive: 0.546.

On to GGUUCAUUGUGUCUCUGGCTT against Grk1, for which the z-score is inactive: -0.378.

Consider GCAUCUCUAAUGUCCAGCATT against Slc5a9, for which the z-score is inactive: -0.715.

As to GGGCAAAAGCUGUUACAAGTT against Ahrr, the z-score is inactive: -0.0958.

On to CCACAAGUGCUUCAUGGGUTT against Rims3, for which the z-score is inactive: 0.299.

As for GGGCUUUUUCUUGUUUUUCTT against Brk1, the z-score was inactive: 0.618.

As to GGAAAUGGAGAAAUAUGCATT against Plod3, the z-score is inactive: -0.167.

As for CCUUCUAAGAGAAAAACGUTT against Eps15, the z-score is inactive: 0.198.

In the case of GGUCAACAAGGGCUUAUAGTT against Rpl22, the z-score was inactive: -0.435.

For the sequence GGUGACCAAUCUGUAUGUUTT against Madcam1, the z-score is inactive: 0.18.

For the sequence GGAGGAGAUUGUCCAGAAATT against Ecm1, the z-score was inactive: 1.2.

In the case of GGAUCUACGAAAAAGAUGATT against Crygb, the z-score is inactive: -1.44.

Take CCCAAGCAACCCUUAUCAATT against Mcee: the z-score is inactive: -0.315.

Consider GGAAGAAAAACAGAGGAGATT against Cts7, for which the z-score is inactive: -0.877.

Consider GGAAUCAUCUUUGUGGAGATT against Nudt22, for which the z-score is inactive: -0.733.

As for GCUUAUGCAAUAUGAUAACTT against Gnpda2, the z-score was inactive: -0.347.

Take GGUAUCUUCAAGUACAUGATT against Zfp959: the z-score was inactive: 0.92.

In the case of GGGUCAUGUCUGAAUUAAATT against Shld2, the z-score is inactive: -0.68.

With GGGAGUUAAAUACCUGUGUTT against Dusp22, the z-score was inactive: -0.0625.

Turning to GGAGAAUGAGAUCAACCUGTT against Pah, the z-score was inactive: 0.618.

With GGGCCAAGCAAUUUGGUAGTT against S100a14, the z-score was inactive: 1.31.

CCAGAUACUUCUCAUGGCGTT against Dipk1b: the z-score was inactive: -0.0671.

For GAACGUGCAGCUGACAGAGTT against Ppp1ca, the z-score was inactive: -1.03.

CCUCAGGUAUCCCGCUUUATT against Stk24: the z-score is inactive: 0.442.

On to GGUUCGAUGUCCAGUCACUTT against Ppp2ca, for which the z-score is inactive: -1.41.

Turning to “GCAGGGCCUCUGUUUUUUATT against 1190005I06Rik”, the z-score was inactive: -1.84.

In the case of GGAGUUGCCUCUGAAGACCTT against Ccm2l, the z-score was inactive: 0.797.

Regarding GCAACAAGUUCCCAGUAUCTT against Dnah1, the z-score was inactive: 0.725.

Consider CGCACUCUUACUCACCAGATT against Tmem135, for which the z-score was inactive: 0.437.

With GGUGUUAAGUCACAAAAUGTT against Meis2, the z-score was inactive: 1.59.

For the sequence CGGGCAUUUACGAAUCAAGTT against Lmln, the z-score is inactive: 0.813.

For the sequence GGUAAACUACGAAGAGUUUTT against Calm2, the z-score was inactive: 1.09.

Take GGAAAUGUUAAGUGCCUUGTT against Mrpl53: the z-score is inactive: -0.0807.

Take GCCGCUAACUAAAGUCAAATT against Aloxe3: the z-score is inactive: 1.15.

As for GCAAACUAUAGGUGCGUUGTT against Dscc1, the z-score was inactive: 0.885.

As for CGAUGAAGUAUCAAUUAGATT against Usp1, the z-score was inactive: 0.165.

GGGAAAGUUGGAGAGUACGTT against Hoxa1: the z-score was inactive: -0.626.

For the sequence GCCAUGGAAAGAGCCUUGATT against Ighg3, the z-score was inactive: -0.323.

Turning to GGUCAAUGAACCAUCCCACTT against Padi6, the z-score was inactive: -0.983.

As for GGAAGACUUGUUCAACUGGTT against Grwd1, the z-score was inactive: -0.88.

As to CCUCUGUCUAAGAUCAGUUTT against Trpm2, the z-score is inactive: 0.102.

As for GGCCACUGAUCAACUAAAGTT against Zfp110, the z-score is active: 2.27.

GGAACAACUCUUAUGUAUUTT against B3gat1: the z-score is inactive: 0.000911.

Regarding GCCUGCCUUGGAAAAGUCATT against Akr1c13, the z-score was inactive: -0.213.

As for CGUGAAUGACGACCCUCUATT against Zfp456, the z-score was inactive: -0.273.

In the case of CCUUGGAAUGCAUAGCCAATT against Sdk1, the z-score was inactive: 0.285.

Regarding GGAGACCUUUCUGAAAGUCTT against Serinc5, the z-score was inactive: 0.423.

CCUGAGUAUUAAAGUUUAGTT against Nelfa: the z-score is inactive: -0.702.

Take GGACUCCAACCACACUAUCTT against Rab4b: the z-score was inactive: 0.847.

For GCACUGGAAUCAAACCAUCTT against Ppp2r5b, the z-score is inactive: 0.444.

Consider GGAUGGGUUGAAUUGUUUGTT against Serpina7, for which the z-score was inactive: 0.675.

Turning to GCAGAUCUCUUACGUCAUCTT against Adam9, the z-score was inactive: 0.178.

Turning to GUCUUCUUACCCUACUGUGTT against Olfr1178, the z-score was inactive: 0.34.

As for GGCCGUAUCUGUCUCCUUUTT against Defa1, the z-score was inactive: 0.138.

On to GGCUUUUUCUCACCAGCACTT against Sin3a, for which the z-score was inactive: -0.0919.

As to GACAUAUUUUCAUCACUGATT against Vmn1r17, the z-score is inactive: -0.903.

As for GGAUCUCGUGGGCUACAUUTT against Slc47a1, the z-score was inactive: 0.688.

Turning to GGAGCACCAGAGUUAAAACTT against Bcam, the z-score was inactive: -0.0994.

Consider CCCUAAUCUGGUGAACGAUTT against Mfap5, for which the z-score is inactive: -1.05.

As to CCACUACUAGAAUCCUAAATT against Sdc3, the z-score was inactive: 0.748.

GCCUUGGACUACUUUACACTT against Tbc1d2b: the z-score was inactive: -1.2.

For the sequence GGGCUGGCACUGGAAAUAGTT against Pih1d1, the z-score was inactive: 0.159.

GGGUUUUCCAUGAUCUAUUTT against Nup188: the z-score is inactive: -0.436.

With “CGUGUUUAGGAAAAAUUGUTT against 2510039O18Rik”, the z-score was inactive: -0.398.

For CCGUUUCAGUCAAAUCCAUTT against Arid4b, the z-score is inactive: 0.365.

Regarding CGGGACAAGUCCAAAUUGUTT against Rnase2b, the z-score is inactive: 0.646.

Consider CCAAGCAUUCGAGUAUGUUTT against Ctsj, for which the z-score is inactive: 1.07.

For the sequence GCACUCUUUUGUGCCACUUTT against Adora3, the z-score was inactive: 1.02.

For the sequence GGGAAAUGCUUCUAAAAAUTT against Pcdhb11, the z-score was inactive: 0.377.

Turning to GGCCAUAACGAAGGAUGAATT against Cdv3, the z-score is inactive: 0.373.

Regarding GCUUUUUCUGGAAACAGCUTT against Gpr89, the z-score is inactive: -1.26.

Take GGCAACCUUGUCUAUUCACTT against Rrp7a: the z-score is inactive: 0.343.

In the case of CCAGCAAAAAUCGAUACUUTT against Plcg2, the z-score is inactive: 0.152.

“GCCAUCAACGUAUCUUACUTT against 4930548H24Rik”: the z-score is inactive: -0.164.

Regarding GGCUCAUCGAGAUUAACCCTT against Carns1, the z-score was inactive: 0.195.

In the case of GGCAAAAUUAGCAUCAAAGTT against Slc22a3, the z-score was inactive: 0.577.

In the case of GGGCUUAAUUAUGUCUUUUTT against Ceacam19, the z-score was inactive: -0.528.

CCACUUGGAUGCAGUGAAGTT against Ehmt1: the z-score is inactive: 0.0126.

For CGGAUGAACAUUUACCAAGTT against Dpy19l3, the z-score is inactive: 0.796.

As for GGAGAUUCUGUAGGUUAUUTT against Lrat, the z-score is inactive: 0.0632.

Turning to CGUAGAAGUUGAUGAGUCATT against Numb, the z-score is inactive: -1.05.

With GGAUAAUCAGGAAGGUACUTT against Blmh, the z-score is inactive: 0.0997.

As to GGGCUUGGUUUUGGACAUUTT against Fcsk, the z-score is inactive: 1.41.

Regarding GCGACAUCUACAAGUUCAUTT against Foxb2, the z-score is inactive: -0.326.

The values are drawn from PubChem BioAssay AID1508600 (Functional Genomics Laboratory (NCATS/FGL), 2020).
